Some of the results follow.

Protein sequences, listed by entry. Tags and fused reporters are not part of them. Lines headed by an entry give the natural chain unless they say otherwise; changes in a name come on top.
UniProt Q13496: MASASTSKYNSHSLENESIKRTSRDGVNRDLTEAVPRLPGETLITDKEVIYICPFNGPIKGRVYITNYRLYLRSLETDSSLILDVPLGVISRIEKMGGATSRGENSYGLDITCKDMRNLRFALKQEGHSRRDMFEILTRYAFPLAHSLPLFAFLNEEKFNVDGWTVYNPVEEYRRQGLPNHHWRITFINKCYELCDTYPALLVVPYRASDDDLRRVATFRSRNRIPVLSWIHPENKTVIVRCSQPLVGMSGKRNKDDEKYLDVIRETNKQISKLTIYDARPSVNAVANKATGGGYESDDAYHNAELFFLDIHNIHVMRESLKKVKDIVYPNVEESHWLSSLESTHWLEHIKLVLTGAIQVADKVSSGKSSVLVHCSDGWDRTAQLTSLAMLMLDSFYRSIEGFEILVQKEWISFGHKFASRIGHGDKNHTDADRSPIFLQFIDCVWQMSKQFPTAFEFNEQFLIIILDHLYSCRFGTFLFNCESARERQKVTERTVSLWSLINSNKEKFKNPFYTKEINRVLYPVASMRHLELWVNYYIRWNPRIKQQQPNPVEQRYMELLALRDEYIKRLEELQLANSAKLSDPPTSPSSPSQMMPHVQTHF
UniProt P82909: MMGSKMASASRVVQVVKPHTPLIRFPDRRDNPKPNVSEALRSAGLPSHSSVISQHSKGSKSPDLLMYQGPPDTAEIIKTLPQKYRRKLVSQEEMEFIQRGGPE
UniProt O75431: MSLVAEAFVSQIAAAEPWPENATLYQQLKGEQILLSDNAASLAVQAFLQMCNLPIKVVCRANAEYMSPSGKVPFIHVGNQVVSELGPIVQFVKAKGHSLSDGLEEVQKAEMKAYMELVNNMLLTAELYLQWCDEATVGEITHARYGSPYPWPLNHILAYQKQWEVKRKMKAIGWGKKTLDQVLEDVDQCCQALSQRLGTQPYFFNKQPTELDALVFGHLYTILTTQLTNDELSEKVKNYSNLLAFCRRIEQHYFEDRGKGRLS
UniProt Q96S97: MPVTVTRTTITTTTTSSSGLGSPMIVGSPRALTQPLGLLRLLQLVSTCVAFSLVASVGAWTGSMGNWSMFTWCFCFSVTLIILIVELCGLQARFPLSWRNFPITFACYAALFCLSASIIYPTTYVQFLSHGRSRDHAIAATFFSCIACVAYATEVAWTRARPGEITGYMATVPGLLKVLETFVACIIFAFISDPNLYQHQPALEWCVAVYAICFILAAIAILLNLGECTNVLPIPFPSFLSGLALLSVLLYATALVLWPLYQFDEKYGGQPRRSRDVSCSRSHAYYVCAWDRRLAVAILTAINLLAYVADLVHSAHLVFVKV
UniProt Q9UM54, whole entry, looked up: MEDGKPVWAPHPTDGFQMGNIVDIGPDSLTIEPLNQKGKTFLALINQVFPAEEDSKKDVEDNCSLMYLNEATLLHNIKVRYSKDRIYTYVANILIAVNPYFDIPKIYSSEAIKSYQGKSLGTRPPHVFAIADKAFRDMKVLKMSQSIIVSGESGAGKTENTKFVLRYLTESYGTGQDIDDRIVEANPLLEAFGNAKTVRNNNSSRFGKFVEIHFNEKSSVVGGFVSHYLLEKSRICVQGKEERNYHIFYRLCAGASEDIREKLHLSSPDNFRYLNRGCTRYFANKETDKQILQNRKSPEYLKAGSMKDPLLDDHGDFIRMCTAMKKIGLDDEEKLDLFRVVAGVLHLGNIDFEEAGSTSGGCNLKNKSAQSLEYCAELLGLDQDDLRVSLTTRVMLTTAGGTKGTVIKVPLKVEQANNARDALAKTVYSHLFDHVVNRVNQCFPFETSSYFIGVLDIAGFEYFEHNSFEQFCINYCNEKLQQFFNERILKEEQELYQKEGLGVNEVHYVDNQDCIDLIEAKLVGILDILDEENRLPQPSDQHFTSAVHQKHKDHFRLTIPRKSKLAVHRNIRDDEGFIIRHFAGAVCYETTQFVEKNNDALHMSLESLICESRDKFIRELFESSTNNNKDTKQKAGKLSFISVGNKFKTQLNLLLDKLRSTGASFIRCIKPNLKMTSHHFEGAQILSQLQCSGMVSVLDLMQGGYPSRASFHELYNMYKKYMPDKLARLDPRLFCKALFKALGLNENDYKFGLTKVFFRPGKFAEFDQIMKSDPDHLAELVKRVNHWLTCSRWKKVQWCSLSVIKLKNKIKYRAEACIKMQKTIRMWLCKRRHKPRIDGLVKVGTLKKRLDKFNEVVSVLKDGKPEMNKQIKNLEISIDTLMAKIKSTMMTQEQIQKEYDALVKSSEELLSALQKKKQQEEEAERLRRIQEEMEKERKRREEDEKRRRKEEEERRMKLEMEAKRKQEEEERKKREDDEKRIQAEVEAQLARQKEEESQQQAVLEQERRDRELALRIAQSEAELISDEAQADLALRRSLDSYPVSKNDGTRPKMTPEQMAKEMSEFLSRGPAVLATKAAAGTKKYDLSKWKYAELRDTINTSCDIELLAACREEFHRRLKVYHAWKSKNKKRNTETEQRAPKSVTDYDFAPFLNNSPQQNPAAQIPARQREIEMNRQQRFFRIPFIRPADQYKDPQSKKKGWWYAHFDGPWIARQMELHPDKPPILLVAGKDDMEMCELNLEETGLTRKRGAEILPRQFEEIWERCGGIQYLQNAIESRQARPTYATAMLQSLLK
UniProt Q9NZJ7, whole entry, looked up: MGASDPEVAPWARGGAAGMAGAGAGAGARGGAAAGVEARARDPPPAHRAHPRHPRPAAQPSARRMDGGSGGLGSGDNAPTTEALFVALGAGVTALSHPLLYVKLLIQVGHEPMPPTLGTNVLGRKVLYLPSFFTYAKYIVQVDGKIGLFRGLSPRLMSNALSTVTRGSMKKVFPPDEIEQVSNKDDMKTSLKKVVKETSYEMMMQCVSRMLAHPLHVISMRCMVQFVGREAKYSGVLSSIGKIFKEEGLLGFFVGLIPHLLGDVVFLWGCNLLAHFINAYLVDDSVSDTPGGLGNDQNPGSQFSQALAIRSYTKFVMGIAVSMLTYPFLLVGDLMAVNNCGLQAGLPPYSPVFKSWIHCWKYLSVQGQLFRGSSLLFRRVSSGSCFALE
UniProt P13995: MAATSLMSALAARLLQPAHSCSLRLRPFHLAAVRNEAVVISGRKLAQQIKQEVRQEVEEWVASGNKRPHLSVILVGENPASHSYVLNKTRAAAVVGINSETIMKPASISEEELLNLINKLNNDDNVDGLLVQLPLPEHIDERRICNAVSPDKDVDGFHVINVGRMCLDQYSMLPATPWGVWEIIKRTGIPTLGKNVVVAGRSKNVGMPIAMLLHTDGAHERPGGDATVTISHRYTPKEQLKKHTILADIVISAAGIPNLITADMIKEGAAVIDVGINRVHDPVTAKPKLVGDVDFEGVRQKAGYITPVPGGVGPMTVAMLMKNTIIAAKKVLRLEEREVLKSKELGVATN
UniProt P00156: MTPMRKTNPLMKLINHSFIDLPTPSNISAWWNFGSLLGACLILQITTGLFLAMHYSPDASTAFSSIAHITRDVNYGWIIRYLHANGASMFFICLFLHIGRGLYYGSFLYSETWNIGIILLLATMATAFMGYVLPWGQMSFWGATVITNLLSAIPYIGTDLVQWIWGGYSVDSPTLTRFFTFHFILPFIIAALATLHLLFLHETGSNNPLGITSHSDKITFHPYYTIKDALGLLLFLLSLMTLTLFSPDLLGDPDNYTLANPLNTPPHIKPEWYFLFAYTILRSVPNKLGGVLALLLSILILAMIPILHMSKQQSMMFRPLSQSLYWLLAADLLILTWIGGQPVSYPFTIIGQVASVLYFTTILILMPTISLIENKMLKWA
UniProt O94832: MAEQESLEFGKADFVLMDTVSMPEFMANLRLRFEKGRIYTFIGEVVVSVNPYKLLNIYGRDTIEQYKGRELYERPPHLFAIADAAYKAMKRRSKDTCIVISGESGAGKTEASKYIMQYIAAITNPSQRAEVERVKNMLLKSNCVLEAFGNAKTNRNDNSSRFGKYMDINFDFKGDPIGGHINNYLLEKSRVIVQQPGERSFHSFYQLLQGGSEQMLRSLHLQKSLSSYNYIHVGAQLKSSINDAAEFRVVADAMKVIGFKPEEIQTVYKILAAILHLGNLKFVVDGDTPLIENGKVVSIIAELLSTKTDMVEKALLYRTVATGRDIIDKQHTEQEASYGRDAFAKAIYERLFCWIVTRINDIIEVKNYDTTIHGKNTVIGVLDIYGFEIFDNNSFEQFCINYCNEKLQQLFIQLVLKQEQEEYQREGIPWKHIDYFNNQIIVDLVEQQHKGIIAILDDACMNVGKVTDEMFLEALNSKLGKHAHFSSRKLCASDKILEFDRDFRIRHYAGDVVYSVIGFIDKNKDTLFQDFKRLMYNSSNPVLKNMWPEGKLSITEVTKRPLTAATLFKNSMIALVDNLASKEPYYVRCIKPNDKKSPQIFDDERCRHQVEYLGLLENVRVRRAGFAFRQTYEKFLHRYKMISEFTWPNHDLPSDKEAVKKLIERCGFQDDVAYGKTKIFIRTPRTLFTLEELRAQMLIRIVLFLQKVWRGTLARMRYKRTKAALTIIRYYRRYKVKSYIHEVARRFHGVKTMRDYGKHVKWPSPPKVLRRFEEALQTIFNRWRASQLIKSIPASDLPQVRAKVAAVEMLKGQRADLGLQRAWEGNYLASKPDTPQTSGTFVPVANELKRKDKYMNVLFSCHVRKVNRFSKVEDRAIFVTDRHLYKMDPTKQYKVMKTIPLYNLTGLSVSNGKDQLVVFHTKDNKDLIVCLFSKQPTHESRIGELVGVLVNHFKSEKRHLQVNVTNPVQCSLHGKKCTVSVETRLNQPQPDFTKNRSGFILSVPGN
UniProt Q96E11: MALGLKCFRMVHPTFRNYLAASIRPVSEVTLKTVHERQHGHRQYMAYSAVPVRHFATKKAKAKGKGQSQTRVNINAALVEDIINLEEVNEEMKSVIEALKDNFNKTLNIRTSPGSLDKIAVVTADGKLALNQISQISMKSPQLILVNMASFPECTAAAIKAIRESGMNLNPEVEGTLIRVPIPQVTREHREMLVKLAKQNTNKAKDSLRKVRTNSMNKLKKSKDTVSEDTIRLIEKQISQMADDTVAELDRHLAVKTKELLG
UniProt P26038, whole entry, looked up: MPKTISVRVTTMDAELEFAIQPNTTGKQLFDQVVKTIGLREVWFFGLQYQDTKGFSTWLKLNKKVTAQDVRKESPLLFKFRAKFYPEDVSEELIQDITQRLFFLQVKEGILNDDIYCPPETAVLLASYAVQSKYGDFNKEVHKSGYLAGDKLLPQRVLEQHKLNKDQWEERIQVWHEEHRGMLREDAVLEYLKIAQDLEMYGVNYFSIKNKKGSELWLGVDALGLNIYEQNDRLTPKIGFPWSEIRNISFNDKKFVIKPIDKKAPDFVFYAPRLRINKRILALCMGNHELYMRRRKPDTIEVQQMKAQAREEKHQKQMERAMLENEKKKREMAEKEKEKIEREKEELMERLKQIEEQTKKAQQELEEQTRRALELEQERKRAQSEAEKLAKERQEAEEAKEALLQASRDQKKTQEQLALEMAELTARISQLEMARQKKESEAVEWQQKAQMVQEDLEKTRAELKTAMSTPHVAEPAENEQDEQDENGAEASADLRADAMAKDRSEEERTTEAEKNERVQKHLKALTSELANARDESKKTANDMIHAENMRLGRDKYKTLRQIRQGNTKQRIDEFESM
UniProt Q96DR8: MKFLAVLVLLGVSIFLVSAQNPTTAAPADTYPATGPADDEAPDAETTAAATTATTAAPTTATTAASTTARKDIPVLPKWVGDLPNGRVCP
UniProt Q969V6: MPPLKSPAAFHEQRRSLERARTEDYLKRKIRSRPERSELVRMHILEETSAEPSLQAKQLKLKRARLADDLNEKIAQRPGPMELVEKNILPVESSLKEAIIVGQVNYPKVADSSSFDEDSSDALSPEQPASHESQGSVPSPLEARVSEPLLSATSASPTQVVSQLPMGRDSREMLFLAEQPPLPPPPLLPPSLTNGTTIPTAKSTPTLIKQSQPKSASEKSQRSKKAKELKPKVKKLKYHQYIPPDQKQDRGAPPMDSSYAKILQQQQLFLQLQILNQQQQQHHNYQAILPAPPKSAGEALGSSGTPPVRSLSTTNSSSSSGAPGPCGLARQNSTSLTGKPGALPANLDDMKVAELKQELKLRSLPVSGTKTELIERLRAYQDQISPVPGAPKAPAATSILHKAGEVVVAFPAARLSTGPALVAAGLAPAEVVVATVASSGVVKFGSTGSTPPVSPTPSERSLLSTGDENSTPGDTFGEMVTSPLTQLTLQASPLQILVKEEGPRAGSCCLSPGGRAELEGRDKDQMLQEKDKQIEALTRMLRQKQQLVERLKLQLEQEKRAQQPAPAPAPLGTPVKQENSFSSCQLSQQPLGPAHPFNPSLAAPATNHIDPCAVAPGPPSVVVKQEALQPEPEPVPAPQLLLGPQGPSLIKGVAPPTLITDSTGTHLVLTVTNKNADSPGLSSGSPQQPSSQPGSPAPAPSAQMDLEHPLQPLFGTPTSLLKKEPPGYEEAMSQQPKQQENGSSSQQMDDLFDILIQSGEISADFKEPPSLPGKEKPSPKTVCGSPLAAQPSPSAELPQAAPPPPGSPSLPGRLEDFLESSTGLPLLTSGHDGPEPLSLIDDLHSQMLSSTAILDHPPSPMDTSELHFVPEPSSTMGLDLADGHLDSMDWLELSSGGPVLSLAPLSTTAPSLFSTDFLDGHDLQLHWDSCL

Compound in the first test: Cc1cccc(CC(=O)N2CCc3c2ccc(-c2cn(C)c4ncnc(N)c24)c3F)n1
As to the kind of experiment: log2 fold change, soluble protein after heating vs DMSO (PISA); higher = thermal stabilisation; K562 cells, 10 uM, 30 min; active = over 0.2 and 3.5 SD of the protein, either way, in both replicates (recomputed). The procedure, abridged: (§1)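 K562 cells at 2×10^6 cells/mL were exposed to 10 μM compound for 30 min, then aliquots were heated for 3 min across 48°C-58°C, pooled, and extracted in PBS containing 0.5% NP-40 at 4°C. The supernatant after 21,000xg for 90 min was taken as soluble protein and measured by TMTpro 16plex LC-MS/MS with channel sums equalised. Thermal stability is reported relative to control samples, with values from duplicates. Fold changes are given on a log2 scale.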
For MTM1 (UniProt Q13496), the log2 fold change was inactive: 0.013.
Same read-out and setting: to MRPS36 (UniProt P82909) belongs inactive: 0.006; to MTRR isoform 1 (UniProt Q9UBK8), inactive: 0.064; to MRPS24 (UniProt Q96EL2), inactive: 0.183.
The same measure, in the same setting: the result for MTPAP (UniProt Q9NVV4) reads inactive: -0.081; that for MRPL9 (UniProt Q9BYD2), inactive: 0.021; that for MRPS30 (UniProt Q9NP92), inactive: 0.114.
The same measure, in the same setting: the result for MTMR14 (UniProt Q8NCE2) reads inactive: -0.089.
On to MTX2 (UniProt O75431), for which the log2 fold change is inactive: -0.04.
On the same count and under the same terms, to MTA1 (UniProt Q13330) belongs inactive: 0.108; to MYADM (UniProt Q96S97), inactive: 0.262.
Still for that read-out and setting: to MTOR (UniProt P42345) belongs inactive: 0.014.
The same measure, in the same setting: to MYO6 isoform 6 (UniProt Q9UM54) belongs inactive: -0.015.
In the case of MYH9 (UniProt P35579), the log2 fold change was inactive: 0.1.
Still for that read-out and setting: to MRPS18A isoform 2 (UniProt Q9NVS2) belongs inactive: 0.078; to MRS2 (UniProt Q9HD23), inactive: -0.054.

Compound in the next test: Cc1cn(-c2cc(NC(=O)c3ccc(C)c(Nc4nccc(-c5cccnc5)n4)c3)cc(C(F)(F)F)c2)cn1 [nilotinib]
The description is as above. The gist of the method: as §1
Regarding MTCH1 (UniProt Q9NZJ7), the log2 fold change is inactive: 0.086.
Same read-out and setting: to MTHFD2 (UniProt P13995) belongs inactive: -0.023; to MT-CYB (UniProt P00156), inactive: 0.182.
The same measure, in the same setting: the result for MYH11 isoform 2 (UniProt P35749) reads inactive: 0.05; that for MT-ATP6 (UniProt P00846), inactive: 0.006; that for MYO1D (UniProt O94832), inactive: -0.1.
Still for that read-out and setting: to MTHFD1, A0A384N5Y3 belongs inactive: 0.239; to MRRF (UniProt Q96E11), inactive: -0.027; to MTMR12 (UniProt Q9C0I1), inactive: 0.011.
With MSN (UniProt P26038), the log2 fold change is inactive: 0.007.
On the same count and under the same terms, the result for MSMO1 (UniProt Q15800) reads inactive: 0; that for MRPS10 (UniProt P82664), inactive: -0.097.
Same read-out and setting: to MTMR6 (UniProt Q9Y217) belongs inactive: -0.029.
For the target MUCL1 (UniProt Q96DR8), the log2 fold change was inactive: -0.197.
On the same count and under the same terms, the result for MRPS2 (UniProt Q9Y399) reads inactive: -0.119; that for MRPS15 (UniProt P82914), inactive: -0.33; that for MRPS27 isoform 2 (UniProt Q92552), inactive: -0.083.
Same read-out and setting: the result for MSRB2 (UniProt Q9Y3D2) reads inactive: 0.109.
The same measure, in the same setting: the result for MYCBP (UniProt Q99417) reads inactive: -0.028.
MRPS11 (UniProt P82912): the log2 fold change was inactive: -0.188.
MRPS33 (UniProt Q9Y291): the log2 fold change was inactive: -0.129.
The same measure, in the same setting: the result for MRTFA (UniProt Q969V6) reads inactive: -0.029; that for MYL6B (UniProt P14649), inactive: 0.019.
Still for that read-out and setting: to MTM1 (UniProt Q13496) belongs inactive: 0.036; to MRPS36 (UniProt P82909), inactive: 0.036.
Same read-out and setting: to MTRR isoform 1 (UniProt Q9UBK8) belongs inactive: -0.192; to MRPS24 (UniProt Q96EL2), inactive: -0.195.
Consider MTPAP (UniProt Q9NVV4), for which the log2 fold change was inactive: -0.117.
Same read-out and setting: to MRPL9 (UniProt Q9BYD2) belongs inactive: -0.044.
As to MRPS30 (UniProt Q9NP92), the log2 fold change was inactive: -0.073.
Same read-out and setting: the result for MTMR14 (UniProt Q8NCE2) reads inactive: -0.023; that for MTX2 (UniProt O75431), inactive: 0.062.
Same read-out and setting: the result for MTA1 (UniProt Q13330) reads inactive: -0.041; that for MYADM (UniProt Q96S97), inactive: 0.112.
The same measure, in the same setting: the result for MTOR (UniProt P42345) reads inactive: -0.158; that for MYO6 isoform 6 (UniProt Q9UM54), inactive: 0.036.
On to MYH9 (UniProt P35579), for which the log2 fold change is inactive: -0.002.
On to MRPS18A isoform 2 (UniProt Q9NVS2), for which the log2 fold change is inactive: -0.058.
Still for that read-out and setting: to MRS2 (UniProt Q9HD23) belongs inactive: -0.02.
